Laboratory results: PMC8221569
Positions count from the first letter of the chain named. No constants are given. Whether binding was seen depends on the method and setting. Binding seen in cells or lysates may run through a third protein. Here binding means that the protein was enriched with, or labelled near, the bait; the list need not be complete. For some of these results: No binding means not detected with the bait. Where a sequence is shown, tags or fusion partners need not be part of it.

By UniProt entry, the sequences of proteins in these tests, tags left out.
UniProt O95816: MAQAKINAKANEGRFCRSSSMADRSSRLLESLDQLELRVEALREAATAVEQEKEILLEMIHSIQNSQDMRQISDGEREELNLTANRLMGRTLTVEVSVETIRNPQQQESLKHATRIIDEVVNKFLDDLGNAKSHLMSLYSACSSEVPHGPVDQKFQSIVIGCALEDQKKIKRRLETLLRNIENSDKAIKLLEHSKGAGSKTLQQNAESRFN
UniProt P11142: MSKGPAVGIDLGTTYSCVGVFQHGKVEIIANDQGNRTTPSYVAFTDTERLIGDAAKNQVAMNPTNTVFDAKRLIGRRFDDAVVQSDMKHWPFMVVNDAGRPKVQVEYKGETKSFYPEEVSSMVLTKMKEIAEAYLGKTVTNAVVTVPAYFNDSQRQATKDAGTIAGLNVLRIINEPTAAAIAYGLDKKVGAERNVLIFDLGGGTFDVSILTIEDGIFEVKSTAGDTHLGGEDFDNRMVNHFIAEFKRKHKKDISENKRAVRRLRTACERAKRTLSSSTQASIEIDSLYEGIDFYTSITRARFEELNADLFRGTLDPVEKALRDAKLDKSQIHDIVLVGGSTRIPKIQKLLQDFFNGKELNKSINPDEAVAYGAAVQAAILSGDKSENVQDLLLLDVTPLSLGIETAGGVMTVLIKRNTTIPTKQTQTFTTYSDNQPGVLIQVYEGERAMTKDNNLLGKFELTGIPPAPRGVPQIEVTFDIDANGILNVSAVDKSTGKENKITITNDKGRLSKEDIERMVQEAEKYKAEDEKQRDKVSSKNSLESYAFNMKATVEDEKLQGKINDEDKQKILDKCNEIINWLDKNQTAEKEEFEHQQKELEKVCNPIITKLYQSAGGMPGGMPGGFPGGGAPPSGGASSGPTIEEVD

How the values were obtained:
[1] = target: T1, DNAJC9-Q224A-R227A-M238A-Y242A-MYC-Flag (4A) (human) (UniProt Q8WXX5); assay: affinity purification with mass spectrometry; triple SILAC; DNAJC9-Myc-Flag WT, 4A and control purifications on anti-Flag M2 beads from U-2-OS extracts; n = 2
T1 sequence: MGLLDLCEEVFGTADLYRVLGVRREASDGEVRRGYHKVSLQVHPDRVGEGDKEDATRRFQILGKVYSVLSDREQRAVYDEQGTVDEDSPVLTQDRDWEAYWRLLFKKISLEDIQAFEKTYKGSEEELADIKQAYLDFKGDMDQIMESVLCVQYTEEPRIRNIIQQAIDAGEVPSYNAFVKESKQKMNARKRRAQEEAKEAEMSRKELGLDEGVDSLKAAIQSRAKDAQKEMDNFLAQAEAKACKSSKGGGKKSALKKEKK

[2] = target: T2, DNAJC9-MYC-Flag WT (human) (UniProt Q8WXX5); assay: as above
T2 sequence: T1 sequence with A224Q, A227R, A238M, A242Y

[3] = target: T2, DNAJC9-MYC-Flag WT (human); assay: affinity purification with mass spectrometry; label-free; DNAJC9-Myc-Flag WT, J, 4A and control purifications on anti-Flag M2 beads from MNase-digested U-2-OS chromatin extracts; n = 6

| Substance | binding [1] | binding [2] | binding [3] |
| --- | --- | --- | --- |
| MCM2 (endogenous) (from UniProt P49736 1-904) | no binding |  |  |
| BAG2 (endogenous) (from UniProt O95816 1-211) |  | binds |  |
| HSP7C (HSC70, endogenous) (from UniProt P11142 1-646) |  | binds | binds |
